# Library screening results

Chains of the proteins cited; added tags and fusions are not shown.
UniProt E9BF75, entry or part of it: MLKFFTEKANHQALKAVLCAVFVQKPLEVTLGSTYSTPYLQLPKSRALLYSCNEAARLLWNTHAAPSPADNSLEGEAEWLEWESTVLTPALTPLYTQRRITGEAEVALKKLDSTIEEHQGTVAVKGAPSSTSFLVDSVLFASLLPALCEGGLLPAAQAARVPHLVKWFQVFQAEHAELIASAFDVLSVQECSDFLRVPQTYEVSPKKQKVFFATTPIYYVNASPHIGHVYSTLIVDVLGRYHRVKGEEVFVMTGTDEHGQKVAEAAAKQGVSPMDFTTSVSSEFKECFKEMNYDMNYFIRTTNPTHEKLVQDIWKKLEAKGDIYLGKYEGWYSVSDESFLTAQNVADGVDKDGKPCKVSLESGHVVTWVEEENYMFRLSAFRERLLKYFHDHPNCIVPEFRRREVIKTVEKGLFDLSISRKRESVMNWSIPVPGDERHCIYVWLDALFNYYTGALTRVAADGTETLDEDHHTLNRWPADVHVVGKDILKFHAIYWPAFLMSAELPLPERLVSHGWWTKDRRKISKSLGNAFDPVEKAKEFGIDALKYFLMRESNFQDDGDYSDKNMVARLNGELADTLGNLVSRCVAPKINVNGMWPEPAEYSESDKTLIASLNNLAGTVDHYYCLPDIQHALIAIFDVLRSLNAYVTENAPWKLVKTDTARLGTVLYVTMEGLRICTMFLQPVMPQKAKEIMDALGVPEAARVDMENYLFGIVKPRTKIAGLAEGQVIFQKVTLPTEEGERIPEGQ

Results are percentages, as filed.
How 0% and 100% were set is not recorded. Most values in the screen are low, and negative values occur.
Compounds were drawn at random from those tested, without regard to their results.
A dash means the value is not listed here; it may have been measured.

A: 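Assay on Mycobacterium tuberculosis, filed only as a heat shock assay from Cornell; the read-out is not stated. The concentration is filed as 10 mM, unlikely as a test dose, so the dose is not known. Direction is inferred from retests: higher values go with stronger inhibition. About 69,000 compounds were tested under these conditions; 1.4% (about 930) showed 50% or more at least once.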
B: 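Whole-cell assay for inhibitors of Mycobacterium tuberculosis growth, labelled Cornell in the record; the read-out is not stated. The concentration is filed as 10 mM, unlikely as a test dose, so the dose is not known. Higher means stronger inhibition (inferred from two other growth screens of the library). Of about 53,000 compounds tested this way, about 900 (1.7%) reached 50% or more in at least one test.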
C: 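Methionyl-tRNA synthetase (putative), Leishmania donovani (UniProt E9BF75). Primary screen of methionyl-tRNA synthetase; the read-out is not stated. The test concentration is not given. The values are filed as inhibition. About 68,000 compounds were tested under these conditions; 0.035% (about 24) showed 50% or more at least once.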

| # | structure | A | B | C |
|---|---|---|---|---|
| 1 | `NCC1Cc2cc(F)cc(-c3cnccn3)c2O1` (configuration not stated) | 16.46% | 5.733% | 10.92% |
| 2 | `CN(C)CCN(Cc1ccccc1)C(=O)CN1CCCNC1=O` | -4.472% | - | - |
| 3 | `FC(F)(F)c1nc(NC2CCc3ncnn3C2)c2ccccc2n1` (configuration not stated) | -19.08% | -14.81% | 9.322% |
| 4 | `CN(C)C(=O)N1C[C@@H]2CC[C@H](C1)N(Cc1ccc3nsnc3c1)C2` | - | - | 15.04% |
| 5 | `Cc1noc(C)c1C(=O)N1Cc2ncn(C)c2C(COCC(C)C)C1.O=C(O)C(F)(F)F` (configuration not stated) | 10.61% | 10.82% | - |
| 6 | `O=C(N1CCOCC1)N1CCN(c2ccc(Cl)nn2)C(=O)C1` | -17.78% | - | 12% |
| 7 | `CN1CCN(Cc2c[nH]cn2)CC12CCC(=O)N(CC1CC1)CC2` (configuration not stated) | -12.18% | 0.7608% | 9.22% |
| 8 | `CC1CCN(c2ccnc3ccc(Br)cc23)CC1` | -9.195% | 84.63% | 26.37% |
| 9 | `[H][C@@]12CNC(=O)N1CCN(C1CCOCC1)C2` | -4.67% | -25.17% | - |
| 10 | `CN(C)C(=O)N1C[C@@H]2CC[C@H](C1)N(C/C=C/c1ccc(F)cc1)C2` | - | - | 21.8% |
| 11 | `COc1ccccc1OCC(=O)N1CCC[C@]2(C[C@@H](OC)CO2)C1` | 8.546% | -2.454% | 4.255% |
| 12 | `CC(C)CCN1C2(CCN(c3ncccn3)C2)c2ccccc2S1(=O)=O` (configuration not stated) | -33.37% | 41.65% | 12.88% |
| 13 | `O=C1CSC(c2ccc(O)cc2)c2c(n(C3CCOCC3)[nH]c2=O)N1` (configuration not stated) | 2.725% | -36.78% | 12.42% |
| 14 | `CC(C)COC(C)C(=O)NCc1ccc(-n2cncn2)nc1` (configuration not stated) | 8.736% | -15.88% | 1.031% |
| 15 | `Cc1nn(C)c(C)c1C1CCCN1C(=O)c1cnc2onc(C)c2c1` (configuration not stated) | 11.83% | - | 12.65% |
| 16 | `Cc1oc(C)c(C(=O)NCc2cccc(NC(=O)CN(C)C)c2)c1C` | -24.77% | - | 8.333% |
| 17 | `CN(C)C[C@H]1O[C@H](Cc2cc(-c3ccccn3)on2)CC[C@@H]1O` | -6.003% | 5.629% | 12.05% |
| 18 | `COCCNC(=O)C(C)n1nc(-c2ccco2)cc(N)c1=O` (configuration not stated) | -20.6% | -1.945% | -3.459% |
| 19 | `O=C(NC1CCN(c2ccccc2OC(F)F)C1)c1cccnc1` (configuration not stated) | -0.07188% | - | 10.57% |
| 20 | `Cn1cc(CN2CCC3(CCN(c4cnn(C)c4)C3=O)C2)cn1.O=C(O)C(F)(F)F` (configuration not stated) | -26.38% | 1.4% | - |
| 21 | `CC(C)C1CC(=O)Nc2c1cnn2Cc1ccco1` (configuration not stated) | -10.94% | 33.25% | 16.91% |
| 22 | `CNC(=O)CN1CCC(OCC2CCCO2)CC1` (configuration not stated) | 7.884% | - | 15.86% |
| 23 | `Cc1ccc(NC(=O)c2cccc(OCc3nnnn3C)c2)nc1` | -14.49% | 5.337% | 16.52% |
| 24 | `Cc1cccc(CNC(=O)Nc2ccn(CCCC(=O)N(C)C)n2)c1` | -2.107% | -13.28% | -1.809% |
| 25 | `CCn1nc(C)c2ncnc(NCCN3CCOCC3)c21` | -10.07% | - | -23.87% |
| 26 | `O=C(O)C(F)(F)F.O=C(O)C(F)(F)F.[H][C@@]12COC[C@]1([H])[C@@H](OCc1ccccn1)CN2Cc1cccc(C)n1` | -4.037% | -4.255% | - |
| 27 | `O=C(O)C(F)(F)F.[H][C@@]12C[C@@H](c3nnc(C)[nH]3)O[C@]1([H])CN(C(=O)c1c(C)noc1C)C2` | -25.16% | 25.83% | - |
| 28 | `CNC(=O)c1cc2c(nc1NCC1CC1)CCN(S(C)(=O)=O)CC2` | - | - | 15.27% |
| 29 | `COCCn1cc2c(n1)C(CNCc1nccs1)OCC2.O=C(O)C(F)(F)F.O=C(O)C(F)(F)F` (configuration not stated) | -27.8% | - | - |
| 30 | `CCc1cc(C(=O)N2Cc3ccccc3OC3(CCOCC3)C2)on1` | 0.2057% | -5.387% | 14.79% |
| 31 | `COCc1nn(CC2CC2)c2c1CN(Cc1ccco1)CC2` | - | - | 5.556% |
| 32 | `Cc1cc(C(=O)N2CC[C@@H](O)[C@@H]2Cc2ccccc2)no1` | 8.487% | 4.33% | 1.12% |
| 33 | `O=c1[nH]nc2c(S(=O)(=O)N3CCN(c4ccc(F)cc4)CC3)cccn12` | -6.38% | -18.11% | 4.065% |
| 34 | `CN(C)C(=O)c1nc(CN2CC(c3ccccc3)CC2=O)no1` (configuration not stated) | -22.75% | -36.68% | 6.964% |
| 35 | `CSCCCNC(=O)C1CCC(=O)N(C2CCCC2)C1` (configuration not stated) | 10.97% | - | - |
| 36 | `CCCS(=O)(=O)N1CCC2(CCC(=O)N(CCc3ccccc3)C2)CC1` | -38.52% | - | 16.84% |
| 37 | `COCCOCC(=O)NCCCOC1CCCc2ccccc21` (configuration not stated) | -7.836% | -47.07% | 0.7246% |
| 38 | `CN1CCCN(C[C@@H]2CN(C(=O)CC3CCC3)C[C@@H]2CO)CC1` | -3.104% | -8.172% | 16.08% |
| 39 | `CN1CCCC[C@@H]2[C@H]1[C@@H](c1ccccc1)CCN2S(=O)(=O)N1CCCC1` | - | - | 26.37% |
| 40 | `CC(NCC1(N(C)C)CCOCC1)c1ccc(SC(F)F)cc1` (configuration not stated) | 4.555% | 24.22% | 8.947% |
| 41 | `Cc1cccc(CNC(=O)Nc2ccn(CCN(C)C)n2)c1` | -32.35% | 1.543% | 2.326% |
| 42 | `Cn1cnnc1S(=O)(=O)Cc1cc(Cl)c2c(c1)OCCO2` | 5.941% | 7.922% | 7.125% |
| 43 | `CC(Cn1ccnc1)NC(=O)NCCNC(=O)C(C)C` (configuration not stated) | -4.447% | - | 7.143% |
| 44 | `CC(Cc1cncs1)Nc1ncnc2cccc(F)c12` (configuration not stated) | 21.97% | 19.51% | 10.76% |
| 45 | `Cc1cc(C)n(CC2CN(Cc3cc(C)on3)CCO2)n1` (configuration not stated) | -10.71% | - | 22.63% |
| 46 | `CCC(NC1Cc2ccccc2C1)c1ccc(S(C)(=O)=O)cc1` (configuration not stated) | 2.582% | - | 11.75% |
| 47 | `Cc1ccc2c(n1)N(CC(C)C)CCN(S(C)(=O)=O)C2.O=C(O)C(F)(F)F` | -23.14% | 6.249% | - |
| 48 | `COCCN1C[C@H]2CC[C@@H]1CN(CC(=O)Nc1ccn(C)n1)C2` | - | - | 17.01% |
| 49 | `Cc1ccc(-c2nn(-c3cccc(F)c3)cc2CN(CCO)CCO)o1` | -14.61% | 45.97% | -21.45% |
| 50 | `[H][C@@]12CS(=O)(=O)C[C@]1([H])N(Cc1cc(Cl)cc(Cl)c1)CCN2CCO` | -5.541% | -11.47% | - |
| 51 | `CC(C)(C)c1coc([C@@H]2COCCN2CC2CC2)n1` | -9.875% | -16.21% | 15.04% |
| 52 | `Cc1cc(C)n(CC2CCCN2C(=O)CCNc2ncccn2)n1` (configuration not stated) | 5.242% | - | 4.918% |
| 53 | `CCc1nccn1C1CCCN(C(=O)Cc2cn3ccsc3n2)C1` (configuration not stated) | 27.42% | - | 15.3% |
| 54 | `CC(Cn1cccn1)NC(=O)Nc1nnc(C2CC2)s1` (configuration not stated) | 2.958% | -0.8565% | 14.98% |
| 55 | `CCOC(C)c1nc(CN2CCN(Cc3cccnc3)CC2)cs1` (configuration not stated) | -0.1053% | 3.884% | 18.39% |
| 56 | `O=C(c1cccnc1N1CCOCC1)N1CCCC(n2cncn2)C1` (configuration not stated) | -14.2% | - | 15.79% |
| 57 | `CN(C)C(=O)N1CCCC2(CCN(Cc3ccc(Cl)c(F)c3)C2)C1` (configuration not stated) | 1.469% | 0.1658% | 7.317% |
| 58 | `CN(C)C1CCN(C(=O)CCc2cc(Br)cs2)CC1` | -10.56% | - | 10.96% |
| 59 | `CN1C[C@@H](n2cnc(-c3ccccc3)c2-c2ccccn2)C[C@H]1C(=O)O` | 47.91% | - | 7.397% |
| 60 | `CCOCC1CN(Cc2cnn(C)c2)Cc2nn(CC3CC3)cc21` (configuration not stated) | - | - | 1.961% |
| 61 | `[H][C@@]12CC(C)=CC[C@]1([H])CN(C(=O)c1ccnc(CCC)c1)C2` | 20.74% | 23.44% | - |
| 62 | `O=S(=O)(c1ccc(F)cc1)N1CCCC1c1cc[nH]n1` (configuration not stated) | -13.38% | - | 7.294% |
| 63 | `CCNc1ncc(C(=O)NC2COC3(CCCC3)C2)cn1` (configuration not stated) | 11.61% | 20.3% | 16.67% |
| 64 | `O=C(O)C(F)(F)F.O=C(O)C(F)(F)F.[H][C@@]12OCCC[C@]1([H])N(Cc1cnn(C)c1)C[C@@H]2N1CCOCC1` | 7.534% | -27.9% | - |
| 65 | `CN(C(=O)C(c1c(F)cccc1Cl)N(C)C)c1nccs1` (configuration not stated) | -3.774% | 10.18% | 7.949% |
| 66 | `COc1ccccc1CN(CCCn1ccnc1)CC1CCOC1` (configuration not stated) | - | - | 9.206% |
| 67 | `Cc1cccc(-n2cnc(Cl)c2CO)c1` | -4.84% | -7.633% | 20.92% |
| 68 | `N#Cc1ccc(C(=O)NCCCNc2ccc(C(F)(F)F)cn2)cc1` | 28.89% | - | 11.22% |
| 69 | `CC(C)(CN1CCC2(CCNCC2)CC1)N1CCOCC1` | -10.44% | -25.76% | 11.02% |
| 70 | `CCc1cnc(CCNS(C)(=O)=O)s1` | 13.16% | 15.03% | 12.9% |
| 71 | `Cc1nn(CC(=O)N2CCN(Cc3cccnc3)CC2)c(C)c1Cl` | -9.54% | -5.335% | 8.877% |

Repeated from the top, 6 entries:

structure,A,B,C
NCC1Cc2cc(F)cc(-c3cnccn3)c2O1 (configuration not stated),16.46%,5.733%,10.92%
CN(C)CCN(Cc1ccccc1)C(=O)CN1CCCNC1=O,-4.472%,-,-
FC(F)(F)c1nc(NC2CCc3ncnn3C2)c2ccccc2n1 (configuration not stated),-19.08%,-14.81%,9.322%
CN(C)C(=O)N1C[C@@H]2CC[C@H](C1)N(Cc1ccc3nsnc3c1)C2,-,-,15.04%
Cc1noc(C)c1C(=O)N1Cc2ncn(C)c2C(COCC(C)C)C1.O=C(O)C(F)(F)F (configuration not stated),10.61%,10.82%,-
O=C(N1CCOCC1)N1CCN(c2ccc(Cl)nn2)C(=O)C1,-17.78%,-,12%

Measurements from “University of Dundee, Small-Polar-MMV Screening Library” (2021), ChEMBL document CHEMBL3988442.